Source: PMC9157164
These are yes or no findings as the source states them, for the method shown. Binding seen in cells or lysates may run through a third protein.

Amino acid sequences for entries named in this document (tags omitted).
UniProt B2RWS6: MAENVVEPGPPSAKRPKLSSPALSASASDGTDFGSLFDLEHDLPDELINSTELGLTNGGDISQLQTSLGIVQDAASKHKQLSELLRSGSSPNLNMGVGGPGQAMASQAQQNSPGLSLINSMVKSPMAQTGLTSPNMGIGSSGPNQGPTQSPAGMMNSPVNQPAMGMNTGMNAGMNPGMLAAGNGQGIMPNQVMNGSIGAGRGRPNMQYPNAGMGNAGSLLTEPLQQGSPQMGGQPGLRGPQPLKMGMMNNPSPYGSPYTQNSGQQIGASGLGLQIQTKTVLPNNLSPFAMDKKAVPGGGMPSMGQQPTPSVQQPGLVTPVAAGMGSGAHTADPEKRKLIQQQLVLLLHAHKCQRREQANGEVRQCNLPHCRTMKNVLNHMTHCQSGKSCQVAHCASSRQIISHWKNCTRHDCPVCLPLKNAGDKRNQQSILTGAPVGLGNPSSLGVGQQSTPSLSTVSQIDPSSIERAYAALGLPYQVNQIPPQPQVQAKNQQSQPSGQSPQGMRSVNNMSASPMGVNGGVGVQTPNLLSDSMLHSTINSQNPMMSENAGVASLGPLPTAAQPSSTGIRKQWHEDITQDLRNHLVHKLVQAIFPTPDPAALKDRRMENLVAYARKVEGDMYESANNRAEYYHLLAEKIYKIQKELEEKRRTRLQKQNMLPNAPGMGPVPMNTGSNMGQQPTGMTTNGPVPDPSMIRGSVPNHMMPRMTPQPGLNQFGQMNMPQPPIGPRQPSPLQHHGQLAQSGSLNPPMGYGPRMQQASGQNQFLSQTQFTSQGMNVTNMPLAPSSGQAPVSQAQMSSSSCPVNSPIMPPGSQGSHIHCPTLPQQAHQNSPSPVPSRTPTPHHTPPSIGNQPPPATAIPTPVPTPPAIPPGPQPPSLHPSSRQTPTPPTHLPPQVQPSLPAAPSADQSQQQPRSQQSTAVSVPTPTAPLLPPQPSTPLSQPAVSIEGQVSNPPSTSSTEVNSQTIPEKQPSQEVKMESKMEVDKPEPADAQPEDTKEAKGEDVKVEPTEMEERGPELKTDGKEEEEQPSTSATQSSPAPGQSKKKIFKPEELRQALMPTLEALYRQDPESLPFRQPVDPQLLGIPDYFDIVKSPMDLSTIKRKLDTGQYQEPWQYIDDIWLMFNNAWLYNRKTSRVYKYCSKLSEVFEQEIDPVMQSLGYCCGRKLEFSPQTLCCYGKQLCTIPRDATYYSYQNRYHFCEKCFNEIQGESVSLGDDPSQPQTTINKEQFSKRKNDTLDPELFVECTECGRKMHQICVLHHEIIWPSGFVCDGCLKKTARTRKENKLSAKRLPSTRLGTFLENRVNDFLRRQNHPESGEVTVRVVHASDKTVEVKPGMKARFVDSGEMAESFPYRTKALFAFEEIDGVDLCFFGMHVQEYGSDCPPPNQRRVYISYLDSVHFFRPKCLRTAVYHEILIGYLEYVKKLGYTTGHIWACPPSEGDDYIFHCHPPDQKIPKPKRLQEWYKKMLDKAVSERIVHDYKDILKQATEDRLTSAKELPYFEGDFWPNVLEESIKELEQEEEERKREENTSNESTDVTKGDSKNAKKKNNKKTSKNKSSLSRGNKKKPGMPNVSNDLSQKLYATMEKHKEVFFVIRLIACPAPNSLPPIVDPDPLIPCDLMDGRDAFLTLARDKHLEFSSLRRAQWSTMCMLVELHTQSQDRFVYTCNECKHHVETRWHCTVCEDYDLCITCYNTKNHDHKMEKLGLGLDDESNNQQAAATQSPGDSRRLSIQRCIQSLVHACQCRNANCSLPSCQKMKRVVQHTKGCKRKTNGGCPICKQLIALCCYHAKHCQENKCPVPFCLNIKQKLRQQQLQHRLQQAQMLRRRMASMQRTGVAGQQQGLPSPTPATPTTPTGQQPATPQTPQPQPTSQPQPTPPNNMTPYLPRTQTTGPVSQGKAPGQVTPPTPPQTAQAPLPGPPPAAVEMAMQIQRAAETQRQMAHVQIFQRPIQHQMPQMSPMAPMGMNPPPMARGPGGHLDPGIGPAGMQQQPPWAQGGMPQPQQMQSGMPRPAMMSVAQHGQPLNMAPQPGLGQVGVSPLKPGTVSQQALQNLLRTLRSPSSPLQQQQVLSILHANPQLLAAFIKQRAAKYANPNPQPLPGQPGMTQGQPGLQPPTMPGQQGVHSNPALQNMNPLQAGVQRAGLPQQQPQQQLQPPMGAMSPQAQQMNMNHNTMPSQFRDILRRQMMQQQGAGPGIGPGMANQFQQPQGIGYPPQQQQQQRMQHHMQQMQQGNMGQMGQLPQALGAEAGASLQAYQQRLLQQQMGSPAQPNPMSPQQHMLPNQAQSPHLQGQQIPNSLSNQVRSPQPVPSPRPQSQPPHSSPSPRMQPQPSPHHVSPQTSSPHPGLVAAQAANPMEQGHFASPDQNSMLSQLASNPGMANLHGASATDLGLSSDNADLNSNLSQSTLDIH
UniProt O09106: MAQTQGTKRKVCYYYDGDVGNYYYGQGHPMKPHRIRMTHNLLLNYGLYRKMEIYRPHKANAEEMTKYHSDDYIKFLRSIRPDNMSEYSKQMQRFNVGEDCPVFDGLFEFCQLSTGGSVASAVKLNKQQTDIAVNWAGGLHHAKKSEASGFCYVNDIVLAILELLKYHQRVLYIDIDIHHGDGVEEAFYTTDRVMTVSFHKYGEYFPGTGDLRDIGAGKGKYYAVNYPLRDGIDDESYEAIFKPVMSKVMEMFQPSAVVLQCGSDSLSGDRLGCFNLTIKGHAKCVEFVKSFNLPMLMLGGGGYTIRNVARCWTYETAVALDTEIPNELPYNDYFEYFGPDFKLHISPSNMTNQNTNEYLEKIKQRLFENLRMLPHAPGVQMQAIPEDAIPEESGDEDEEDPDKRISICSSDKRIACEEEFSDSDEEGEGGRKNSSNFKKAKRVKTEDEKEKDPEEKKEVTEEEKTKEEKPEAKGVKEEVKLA
UniProt Q8K4B0: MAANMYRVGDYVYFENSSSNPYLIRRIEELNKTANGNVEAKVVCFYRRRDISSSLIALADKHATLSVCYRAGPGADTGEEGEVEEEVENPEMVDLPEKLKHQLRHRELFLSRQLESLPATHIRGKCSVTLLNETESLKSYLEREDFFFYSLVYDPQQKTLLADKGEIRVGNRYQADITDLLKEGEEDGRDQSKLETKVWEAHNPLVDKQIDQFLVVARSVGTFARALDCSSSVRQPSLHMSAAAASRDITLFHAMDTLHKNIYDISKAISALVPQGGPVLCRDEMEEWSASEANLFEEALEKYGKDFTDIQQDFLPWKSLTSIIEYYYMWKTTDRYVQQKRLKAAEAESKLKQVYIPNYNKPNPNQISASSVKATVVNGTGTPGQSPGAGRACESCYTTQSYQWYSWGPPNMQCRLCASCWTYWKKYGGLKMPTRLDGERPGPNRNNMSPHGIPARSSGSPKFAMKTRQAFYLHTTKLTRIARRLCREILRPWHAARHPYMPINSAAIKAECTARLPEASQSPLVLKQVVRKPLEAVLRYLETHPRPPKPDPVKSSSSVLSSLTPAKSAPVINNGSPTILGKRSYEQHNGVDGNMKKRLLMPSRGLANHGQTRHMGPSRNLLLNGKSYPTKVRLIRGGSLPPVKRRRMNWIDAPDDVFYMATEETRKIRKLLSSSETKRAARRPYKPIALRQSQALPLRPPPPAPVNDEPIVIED

Target: p300 (mouse (endogenous in E14 ESCs)) (UniProt B2RWS6)
Assay: co-IP; whole-cell lysate of mouse ESCs in F lysis buffer (20 mM Tris pH 7.9, 500 mM NaCl, 0.1% NP40) adjusted to 300 mM NaCl; 200 ug protein extract incubated with antibodies; Western blot

Row | Substance | binding
1 | HDAC1 (from UniProt O09106 1-482) (enzyme) | no binding
2 | MTA1 (from UniProt Q8K4B0 1-715) | no binding
